In this test the test system is P388 leukemia ip, CD2F1 mice, survival T/C. The experiment in a line: NCI In Vivo Anticancer Drug Screen. Data for tumor model P388 Leukemia (intraperitoneal) in CD2F1 (CDF1) mice. The note with it: T/C endpoint: median survival time, higher T/C = longer survival.
The mark [1] stands for this setting: dose: 100.0 mg/kg/injection, schedule: Q01DX009 (ip), vehicle: saline with Tween-80.
[2] abbreviates: dose: 100.0 mg/kg/injection, schedule: Q04DX002 (ip), vehicle: saline with Tween-80.
The mark [3] stands for this setting: dose: 200.0 mg/kg/injection, schedule: Q04DX002 (ip), vehicle: saline with Tween-80.
The mark [4] stands for this setting: dose: 400.0 mg/kg/injection, schedule: Q04DX002 (ip), vehicle: saline with Tween-80.
Setting [5] is: dose: 50.0 mg/kg/injection, schedule: Q01DX005 (ip), vehicle: saline.
The mark [6] stands for this setting: dose: 100.0 mg/kg/injection, schedule: Q01DX005 (ip), vehicle: saline.
Where [7] appears, read: dose: 200.0 mg/kg/injection, schedule: Q01DX005 (ip), vehicle: saline.

Experimental findings from PubChem BioAssay AID330 (DTP/NCI, 2004) are described below.

The list is a part of this screen's results and no random one: it is rich in T/C values a quarter to a half above the control, in often repeated tests (any T/C) and in doses without a T/C. Further doses and runs are listed elsewhere. T/C is the treated group as % of the vehicle group. Some entries give survivors of the animals treated and no T/C: the source holds a T/C of zero for them, seemingly a mark for toxic or unscored doses. Some survivor counts are full or nearly so, which does not show that the dose was tolerated: survival well below the control is almost never listed, so the zero probably covers shortened survival too. Survivors were counted at the toxicity check, usually on the fifth day, unless a day is given; later deaths do not show. Schedules are NCI's codes, read here as Q, the interval in days (D) or hours (H), X, the number of doses. Some entries hold several experiments; the values are given in rising order. Some structures stand for samples that the source files as different forms (salt, stereo form or complex); doses refer to the form tested. For survival time, the PubChem record calls one and a half times the control and up active, and a quarter to a half above the control has no call in these data; cut-offs in other NCI protocols can differ. Some T/C values are followed by the survivors on the day toxicity was checked, most often the fifth; where none is given, no animal had died by that day.

Consider `O=C1OC(C2OC(=O)C(=O)C2C(=O)c2ccccc2Cl)C(C(=O)c2ccccc2Cl)C1=O` (centres undefined), for which the survivor count is 5 of 6 and 6 of 6 (dose: 60.0 mg/kg/injection, schedule: Q01DX005 (ip), vehicle: saline + Tween-80 + alcohol); 2 of 6 (dose: 120.0 mg/kg/injection, schedule: Q01DX005 (ip), vehicle: saline + Tween-80 + alcohol); 0 of 6 (dose: 240.0 mg/kg/injection, schedule: Q01DX005 (ip), vehicle: saline + Tween-80 + alcohol).
On to `Cc1ccc(S(=O)(=O)N/N=C/c2cc([N+](=O)[O-])ccc2O)cc1`, for which the survivor count (dose: 200.0 mg/kg/injection, schedule: Q01DX005 (ip), vehicle: distilled water + Tween-80) was 0 of 5.
With `CCOC(=O)/N=[N+](\[O-])c1cccc([N+](=O)[O-])c1`, the survivor count (dose: 400.0 mg/kg/injection, schedule: Q01DX001 (ip), vehicle: saline with Tween-80) is 0 of 6.
As for `COc1nc(Cl)nc(OC)n1`, the survivor count reads like this: (dose: 50.0 mg/kg/injection, schedule: Q01DX009 (ip), vehicle: saline with Tween-80) 6 of 6; under setting [1], 6 of 6.
With `Cc1ccc(-c2nc(N)[nH]c2-c2ccc(C)cc2)cc1`, the survivor count under setting [2] is 0 of 6, the survivor count under setting [3] is 0 of 6 and the survivor count under setting [4] is listed as 0 of 6.
For `CN1C2CCC1CC(Cl)C2` (centres undefined), the survivor count is recorded as 0 of 6 under setting [5]; 0 of 5 (dose: 60.0 mg/kg/injection, schedule: Q01DX005 (ip), vehicle: saline); 0 of 6 under setting [6]; 0 of 5 (dose: 120.0 mg/kg/injection, schedule: Q01DX005 (ip), vehicle: saline); 0 of 6 under setting [7]; 0 of 4 (dose: 240.0 mg/kg/injection, schedule: Q01DX005 (ip), vehicle: saline).
For `CCCNC(=O)ON1C(=O)C2C3C=CC(C3)C2C1=O` (centres undefined), the survivor count (dose: 50.0 mg/kg/injection, schedule: Q01DX005 (ip), vehicle: Klucel (hydroxypropylcellulose) (HPC)) was 5 of 5; the survivor count (dose: 100.0 mg/kg/injection, schedule: Q01DX005 (ip), vehicle: Klucel (hydroxypropylcellulose) (HPC)) is 3 of 4; the survivor count (dose: 200.0 mg/kg/injection, schedule: Q01DX005 (ip), vehicle: Klucel (hydroxypropylcellulose) (HPC)) is listed as 4 of 5.
With `Cc1nc(N)nc(N)c1-c1ccc(Cl)c(Cl)c1`, the T/C reads like this: (dose: 1.5 mg/kg/injection, schedule: Q01DX009 (ip), vehicle: saline with Tween-80) 127 % of control; (dose: 2.0 mg/kg/injection, schedule: Q01DX009 (sc), vehicle: other) 127 % of control; (dose: 3.0 mg/kg/injection, schedule: Q01DX009 (sc), vehicle: other) 131 % of control; (dose: 4.0 mg/kg/injection, schedule: Q01DX009 (sc), vehicle: other) 127 % of control; (dose: 5.0 mg/kg/injection, schedule: Q01DX009 (sc), vehicle: other) 149 % of control; (dose: 12.5 mg/kg/injection, schedule: Q04DX003 (ip), vehicle: saline with Tween-80) 140 % of control. The T/C is 148 % of control (dose: 40.0 mg/kg/injection, schedule: Q04DX002 (ip), vehicle: saline); 127 % of control (dose: 50.0 mg/kg/injection, schedule: Q04DX002 (ip), vehicle: saline); 131 % of control [5 of 6 alive] (dose: 60.0 mg/kg/injection, schedule: Q04DX002 (ip), vehicle: saline). Also, the survivor count is on record as 5 of 6 (dose: 16.0 mg/kg/injection, schedule: Q01DX009 (ip), vehicle: saline); 6 of 6 (dose: 50.0 mg/kg/injection, schedule: Q04DX003 (ip), vehicle: saline with Tween-80); 6 of 6 (dose: 100.0 mg/kg/injection, schedule: Q04DX003 (ip), vehicle: saline with Tween-80); 3 of 6 (dose: 200.0 mg/kg/injection, schedule: Q04DX003 (ip), vehicle: saline with Tween-80).
Take `CN(C)c1ccc(C(=C2C=CC(=[N+](C)C)C=C2)c2ccccc2Cl)cc1`: the survivor count is on record as 5 of 6 (dose: 12.5 mg/kg/injection, schedule: Q01DX005 (ip), vehicle: saline with Tween-80); 1 of 6 (dose: 25.0 mg/kg/injection, schedule: Q01DX005 (ip), vehicle: saline with Tween-80); 0 of 6 (dose: 50.0 mg/kg/injection, schedule: Q01DX005 (ip), vehicle: saline with Tween-80); 0 of 6 (dose: 100.0 mg/kg/injection, schedule: Q01DX005 (ip), vehicle: saline with Tween-80); 0 of 6 (dose: 200.0 mg/kg/injection, schedule: Q01DX005 (ip), vehicle: saline with Tween-80).
For the compound `CCCC(C)(O)/C(C)=N/O` (centres undefined), the survivor count under setting [1] was 6 of 6.
On to `CC(C)(C)SC(=O)CCl`, for which the survivor count (dose: 400.0 mg/kg/injection, schedule: Q04DX003 (ip), vehicle: saline with Tween-80) is listed as 0 of 6.
Consider `N#Cc1c(N)[nH]c2ccc(Sc3ccccc3)cc12`, for which, for the setting “dose: 60.0 mg/kg/injection, schedule: Q01DX005 (ip), vehicle: saline with Tween-80”, the T/C was 136 [5 of 6 alive] and 145 % of control. Besides, the survivor count (dose: 120.0 mg/kg/injection, schedule: Q01DX005 (ip), vehicle: saline with Tween-80) is 1 of 6 and the survivor count (dose: 240.0 mg/kg/injection, schedule: Q01DX005 (ip), vehicle: saline with Tween-80) is reported as 0 of 6.
With `CCOC(=C[P+](c1ccccc1)(c1ccccc1)c1ccccc1)OCC`, the survivor count (dose: 6.25 mg/kg/injection, schedule: Q01DX005 (ip), vehicle: water) was 4 of 5; the survivor count (dose: 12.5 mg/kg/injection, schedule: Q01DX005 (ip), vehicle: water) was 6 of 6; the survivor count (dose: 25.0 mg/kg/injection, schedule: Q01DX005 (ip), vehicle: water) is 4 of 6; the survivor count under setting [5] is given as 0 of 6; the survivor count under setting [6] was 0 of 6; the survivor count under setting [7] is given as 0 of 6.
For the compound `NC(=S)N/N=C/c1ccnnc1`, the survivor count is, setting by setting: (dose: 50.0 mg/kg/injection, schedule: Q04DX003 (ip), vehicle: suspension in saline) 6 of 6; (dose: 100.0 mg/kg/injection, schedule: Q04DX003 (ip), vehicle: suspension in saline) 6 of 6.
As to `O=C(NCCCCCCNC(=O)c1ccccc1)c1ccccc1`, where the note is “dose: 400.0 mg/kg/injection, schedule: Q01DX005 (ip), vehicle: Klucel (hydroxypropylcellulose) (HPC)”, the survivor count is reported as 6 of 6.
On to `O=NC1C(=O)NC(=S)NC1=O`, for which the survivor count runs as follows: (dose: 25.0 mg/kg/injection, schedule: Q04DX002 (ip), vehicle: saline with Tween-80) 4 of 6; (dose: 50.0 mg/kg/injection, schedule: Q04DX002 (ip), vehicle: saline with Tween-80) 1 of 6; under setting [2], 2 of 6; under setting [3], 0 of 6; under setting [4], 0 of 6.
With `O=[N+]([O-])c1ccc2c(NCCCCCCCCNc3c4ccccc4nc4cc([N+](=O)[O-])ccc34)c3ccccc3nc2c1`, the T/C was 129 % of control (dose: 0.63 mg/kg/injection, schedule: Q01DX009 (ip), vehicle: other); 129 % of control (dose: 1.25 mg/kg/injection, schedule: Q01DX009 (ip), vehicle: other); 132 % of control (dose: 2.5 mg/kg/injection, schedule: Q01DX009 (ip), vehicle: other); 145 % of control (dose: 5.0 mg/kg/injection, schedule: Q01DX009 (ip), vehicle: other); 145 % of control (dose: 10.0 mg/kg/injection, schedule: Q01DX009 (ip), vehicle: other); 132 % of control (dose: 20.0 mg/kg/injection, schedule: Q01DX009 (ip), vehicle: other).
Regarding `CC/C(C)=C1\OC(=O)C(C)C(O)C(Cc2cccnc2)NC(=O)C(NC(=O)c2ncccc2O)C(C)OC1=O` (centres undefined), the survivor count (dose: 75.0 mg/kg/injection, schedule: Q01DX009 (ip), vehicle: saline with Tween-80) is listed as 6 of 6.
Consider `CC1C(=O)CCC2(C)CCC3C(OC(=O)C3(C)[Se]c3ccccc3)C12` (centres undefined), for which, under setting [4], the survivor count is 3 of 6.
